Results reported in patent publication US6420384B2, “Proton pump inhibitors” (Ariad Pharmaceuticals, Inc., priority 1999, dated 2002).

Details: TSK-Gel HA 1000 HPLC column; linear gradient 10 mM to 500 mM sodium phosphate, 0.15 N NaCl, pH 6.8; corrected using two reference compounds
Text: Hydroxyapatite is the principal mineral component of bone. Hydroxyapatite adsorption chromatography is used as an assay to evaluate the bone-targeting potential of both individual bone-targeting moieties (“monomers”) and of pharmaceuticals incorporating bone-targeting groups.
The rentention time of the compound is expressed in terms of K=(retention time-void time)/void. This K value is corrected using two reference compounds to correct from inter-column and inter-system variation to obtain a K′ value.

NCCCC(O)(P(=O)(O)O)P(=O)(O)O [Alendronate, alendronate]
K′ value (corrected retention K = (retention time-void time)/void): 3.7
